Assay results from PMC8287682.
These are yes or no findings as the source states them, for the method shown. Binding seen in cells or lysates may run through a third protein. Some results given as binding are weak or reduced against the parent protein; the word gives no strength. Tags and fused reporters may be left off the sequences shown.

The chains behind the UniProt entries cited, without tags or fusion partners.
UniProt Q14457: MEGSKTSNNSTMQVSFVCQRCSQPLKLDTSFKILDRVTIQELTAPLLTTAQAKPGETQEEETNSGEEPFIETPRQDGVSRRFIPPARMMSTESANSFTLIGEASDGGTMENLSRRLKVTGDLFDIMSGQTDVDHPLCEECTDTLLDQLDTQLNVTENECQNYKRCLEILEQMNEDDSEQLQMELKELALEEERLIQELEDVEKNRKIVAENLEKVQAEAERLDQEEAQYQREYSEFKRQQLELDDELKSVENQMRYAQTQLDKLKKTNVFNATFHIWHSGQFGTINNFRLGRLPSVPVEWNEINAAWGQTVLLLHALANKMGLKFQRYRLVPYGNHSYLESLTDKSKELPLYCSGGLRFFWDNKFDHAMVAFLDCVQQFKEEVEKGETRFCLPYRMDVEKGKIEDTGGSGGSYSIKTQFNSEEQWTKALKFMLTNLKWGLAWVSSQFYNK
UniProt Q6ZNE5: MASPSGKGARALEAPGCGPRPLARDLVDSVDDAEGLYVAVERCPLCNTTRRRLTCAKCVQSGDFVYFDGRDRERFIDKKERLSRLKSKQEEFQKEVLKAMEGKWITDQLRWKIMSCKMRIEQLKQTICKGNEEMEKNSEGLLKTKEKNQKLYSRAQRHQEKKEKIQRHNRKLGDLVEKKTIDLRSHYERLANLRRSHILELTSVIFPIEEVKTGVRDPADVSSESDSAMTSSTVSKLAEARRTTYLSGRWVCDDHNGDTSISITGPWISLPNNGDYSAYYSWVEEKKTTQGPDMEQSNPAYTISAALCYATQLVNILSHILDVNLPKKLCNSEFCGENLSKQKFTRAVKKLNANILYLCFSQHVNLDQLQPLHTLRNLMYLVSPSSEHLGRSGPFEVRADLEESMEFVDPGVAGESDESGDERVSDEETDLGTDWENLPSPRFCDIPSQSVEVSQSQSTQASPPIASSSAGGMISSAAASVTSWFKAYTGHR

T1: GFP-CMTM7 (human) (UniProt Q96FZ5)
T1 sequence: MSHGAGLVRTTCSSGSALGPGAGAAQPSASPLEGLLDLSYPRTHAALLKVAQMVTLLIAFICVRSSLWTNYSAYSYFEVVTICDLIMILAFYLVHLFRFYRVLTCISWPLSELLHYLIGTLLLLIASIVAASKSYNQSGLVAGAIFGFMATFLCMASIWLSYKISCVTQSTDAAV


Key:
GFP-CMTM7 (human) = biological target: T1, GFP-CMTM7 (human); assay: co-IP; anti-GFP antibody and protein-G Sepharose; lysates of control and GFP-CMTM7-overexpressing HeLa cells, lysed 48 h after transfection; 20 mM Tris-HCl pH 8.0, 150 mM NaCl, 2 mM EDTA, 10% glycerol, 0.5% Nonidet P-40, 4 °C; Western blot
[1] = biological target: Beclin1 (human (endogenous in HeLa)) (UniProt Q14457); assay: co-IP; anti-Beclin1 antibody and protein-G Sepharose; lysates of control and GFP-CMTM7-overexpressing HeLa cells; 20 mM Tris-HCl pH 8.0, 150 mM NaCl, 2 mM EDTA, 10% glycerol, 0.5% Nonidet P-40, 4 °C; Western blot

| binding (GFP-CMTM7 (human)) | binding [1] | Molecule |
| --- | --- | --- |
| binds | – | Beclin1 (from UniProt Q14457 1-450) |
| binds | – | ATG14L (from UniProt Q6ZNE5 1-492) |
| – | binds | GFP-CMTM7 (protein, UniProt Q96FZ5 1-175) MSHGAGLVRTTCSSGSALGPGAGAAQPSASPLEGLLDLSYPRTHAALLKVAQMVTLLIAFICVRSSLWTNYSAYSYFEVVTICDLIMILAFYLVHLFRFYRVLTCISWPLSELLHYLIGTLLLLIASIVAASKSYNQSGLVAGAIFGFMATFLCMASIWLSYKISCVTQSTDAAV |
